From PMC9525703

By UniProt entry, the sequences of proteins in these tests, tags left out. Where a name states a change or a piece, a line headed by the entry shows the natural chain unless it says otherwise.
UniProt Q9NVX7: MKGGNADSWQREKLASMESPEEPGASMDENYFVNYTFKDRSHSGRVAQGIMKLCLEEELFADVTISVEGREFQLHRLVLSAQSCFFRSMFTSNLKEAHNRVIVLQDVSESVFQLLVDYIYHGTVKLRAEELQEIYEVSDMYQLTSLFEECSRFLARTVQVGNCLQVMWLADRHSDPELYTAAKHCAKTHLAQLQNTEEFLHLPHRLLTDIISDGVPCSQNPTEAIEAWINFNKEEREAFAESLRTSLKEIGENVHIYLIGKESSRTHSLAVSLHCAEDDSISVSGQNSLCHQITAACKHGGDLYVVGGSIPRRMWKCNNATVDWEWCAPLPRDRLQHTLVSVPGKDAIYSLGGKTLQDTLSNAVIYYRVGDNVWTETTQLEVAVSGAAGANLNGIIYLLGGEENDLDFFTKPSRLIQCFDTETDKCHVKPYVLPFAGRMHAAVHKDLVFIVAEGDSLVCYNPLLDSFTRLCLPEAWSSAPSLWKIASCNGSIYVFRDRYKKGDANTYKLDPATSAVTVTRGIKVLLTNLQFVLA
UniProt Q9UKL0: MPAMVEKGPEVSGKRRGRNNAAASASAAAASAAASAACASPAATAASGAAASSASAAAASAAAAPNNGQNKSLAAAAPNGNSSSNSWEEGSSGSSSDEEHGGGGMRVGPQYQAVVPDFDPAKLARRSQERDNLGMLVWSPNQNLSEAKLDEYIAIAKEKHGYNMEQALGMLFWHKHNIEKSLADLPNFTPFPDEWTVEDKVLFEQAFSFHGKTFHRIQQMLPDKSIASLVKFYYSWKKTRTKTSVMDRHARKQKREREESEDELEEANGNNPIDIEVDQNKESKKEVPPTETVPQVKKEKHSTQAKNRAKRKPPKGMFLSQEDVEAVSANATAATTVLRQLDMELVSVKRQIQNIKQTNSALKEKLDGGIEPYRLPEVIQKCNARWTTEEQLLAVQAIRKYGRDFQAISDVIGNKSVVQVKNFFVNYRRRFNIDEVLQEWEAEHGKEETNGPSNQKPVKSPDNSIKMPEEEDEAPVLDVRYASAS
UniProt Q5VTD9: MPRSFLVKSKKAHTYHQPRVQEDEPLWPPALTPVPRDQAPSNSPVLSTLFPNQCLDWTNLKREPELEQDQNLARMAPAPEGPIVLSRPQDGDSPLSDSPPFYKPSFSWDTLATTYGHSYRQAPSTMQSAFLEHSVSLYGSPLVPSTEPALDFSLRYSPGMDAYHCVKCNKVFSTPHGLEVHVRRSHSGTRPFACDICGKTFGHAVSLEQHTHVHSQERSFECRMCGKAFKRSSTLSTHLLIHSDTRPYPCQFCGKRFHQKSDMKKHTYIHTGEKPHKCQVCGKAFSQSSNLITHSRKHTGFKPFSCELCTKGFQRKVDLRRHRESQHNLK
UniProt Q99684: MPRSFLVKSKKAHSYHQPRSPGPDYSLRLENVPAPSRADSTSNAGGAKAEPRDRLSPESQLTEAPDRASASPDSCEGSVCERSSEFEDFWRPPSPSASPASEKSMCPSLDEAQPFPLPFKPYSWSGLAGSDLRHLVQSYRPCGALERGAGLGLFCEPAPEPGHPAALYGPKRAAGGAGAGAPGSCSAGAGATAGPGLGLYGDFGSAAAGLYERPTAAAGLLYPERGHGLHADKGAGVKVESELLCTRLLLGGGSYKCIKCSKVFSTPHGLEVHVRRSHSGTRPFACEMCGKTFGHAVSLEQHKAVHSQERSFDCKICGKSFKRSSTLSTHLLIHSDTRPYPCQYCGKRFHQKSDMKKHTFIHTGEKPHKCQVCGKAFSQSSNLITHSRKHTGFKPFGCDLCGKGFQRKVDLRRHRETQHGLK
UniProt Q13547: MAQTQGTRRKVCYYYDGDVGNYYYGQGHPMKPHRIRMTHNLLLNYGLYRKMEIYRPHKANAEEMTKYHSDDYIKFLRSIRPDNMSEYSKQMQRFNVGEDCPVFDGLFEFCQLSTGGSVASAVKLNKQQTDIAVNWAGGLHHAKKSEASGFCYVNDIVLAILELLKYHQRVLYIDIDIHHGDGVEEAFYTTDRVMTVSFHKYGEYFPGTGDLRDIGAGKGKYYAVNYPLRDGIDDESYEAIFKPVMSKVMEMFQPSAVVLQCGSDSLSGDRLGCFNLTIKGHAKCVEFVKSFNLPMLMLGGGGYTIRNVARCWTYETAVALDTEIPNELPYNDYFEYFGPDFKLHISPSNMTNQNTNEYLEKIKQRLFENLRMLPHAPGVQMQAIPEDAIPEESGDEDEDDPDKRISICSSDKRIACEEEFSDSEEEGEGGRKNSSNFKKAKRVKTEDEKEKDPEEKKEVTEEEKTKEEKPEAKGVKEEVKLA
UniProt Q92769: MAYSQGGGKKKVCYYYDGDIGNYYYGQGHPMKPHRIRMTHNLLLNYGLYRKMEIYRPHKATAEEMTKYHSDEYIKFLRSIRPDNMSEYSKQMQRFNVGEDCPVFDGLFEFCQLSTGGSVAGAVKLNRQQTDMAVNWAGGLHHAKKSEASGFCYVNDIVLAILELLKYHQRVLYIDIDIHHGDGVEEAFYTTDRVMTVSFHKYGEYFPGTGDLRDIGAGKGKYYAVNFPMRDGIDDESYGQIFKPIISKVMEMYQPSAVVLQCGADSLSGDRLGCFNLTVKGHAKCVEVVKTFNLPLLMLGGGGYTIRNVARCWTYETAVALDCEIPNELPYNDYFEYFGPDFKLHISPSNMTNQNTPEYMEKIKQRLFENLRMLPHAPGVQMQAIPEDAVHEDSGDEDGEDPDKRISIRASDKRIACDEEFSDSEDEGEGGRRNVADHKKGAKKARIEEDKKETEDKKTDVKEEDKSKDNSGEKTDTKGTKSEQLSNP

Assays:
[1] = target: Flag-KBTBD4^P311PP, pcDNA3.1(+) construct (human) (UniProt Q9NVX7); experiment: affinity purification with mass spectrometry; HEK293T transfected with Flag-KBTBD4 wild type or mutants; 100 nM MLN4924 for 4 h; ANTI-FLAG M2 Affinity Gel, eluted with 3xFLAG peptide; tryptic digest, LC-MS/MS
[2] = target: Flag-KBTBD4^R313PRR, pcDNA3.1(+) construct (human) (UniProt Q9NVX7); experiment: as above

binding [1] | binding [2] | Substance
binds | binds | CoREST (REST Corepressor), endogenous in HEK293T (from UniProt Q9UKL0 1-485)
no binding | no binding | GFI1B (from UniProt Q5VTD9 1-330)
no binding | no binding | Growth Factor Independent Protein 1 (GFI1) (from UniProt Q99684 1-422)
binds | binds | HDAC1 (histone deacetylase 1) (from UniProt Q13547 1-482)
binds | binds | HDAC2 (histone deacetylase 2) (from UniProt Q92769 1-488)

No constants are given. Whether binding was seen depends on the method and setting. Binding seen in cells or lysates may run through a third protein. A yes stands for co-enrichment or nearness to the bait. Other partners may have been found. A no says only that the protein was not detected with the bait.
